Patent publication US11059860B2, “Biocidal peptide and preparation based thereon” (“VERTA RESEARCH-PRODUCTION COMPANY” LTD, priority 2017, dated 2021)
At least one peptide structure holds a part that was inferred or is arguable (an end, a ring closure or a residue). Some results were stated once for a whole list of compounds, not compound by compound. Where a SMILES comes first, the peptide text is derived from it. [ ]: non-standard residue; d: D form. Phe(2-Me) = Cc1ccccc1C[C@H](N)C(=O)O

Legend:
[1] = system: bacterial strains, including antibiotic-resistant strains; assay type: cell-based
[2] = system: spleen cells stimulated with LPS; assay type: cell-based, murine

SMILES | dose range in which high antibacterial activity occurred [1] | effect on splenocyte proliferation stimulated with lipopolysaccharide (in words) [2]
CC[C@H](C)[C@H](N)C(=O)N[C@@H](CC(C)C)C(=O)N1CCC[C@H]1C(=O)N[C@@H](Cc1ccccc1C)C(=O)N[C@@H](CCCCN)C(=O)N[C@@H](Cc1ccccc1C)C(=O)N1CCC[C@H]1C(=O)N[C@@H](Cc1ccccc1C)C(=O)N[C@@H](Cc1ccccc1C)C(=O)N1CCC[C@H]1C(=O)N[C@@H](Cc1ccccc1C)C(=O)N[C@@H](CCCNC(=N)N)C(=O)N[C@@H](CCCNC(=N)N)C(N)=O [Peptide 11, H-Ile-Leu-Pro-(2-Me)Phe-Lys-(2-Me)Phe-Pro-(2-Me)Phe-(2-Me)Phe-Pro-(2-Me) Phe-Arg-Arg-NH2] (H-ILP[Phe(2-Me)]K[Phe(2-Me)]P[Phe(2-Me)][Phe(2-Me)]P[Phe(2-Me)]RR-NH2) | 1 to 5 µg/mL | inhibited the LPS effect
CC[C@H](C)[C@H](N)C(=O)N[C@@H](CC(C)C)C(=O)N1CCC[C@H]1C(=O)N[C@H](Cc1ccccc1)C(=O)N[C@@H](CCCCN)C(=O)N[C@H](Cc1ccccc1)C(=O)N1CCC[C@H]1C(=O)N[C@H](Cc1ccccc1)C(=O)N[C@H](Cc1ccccc1)C(=O)N1CCC[C@H]1C(=O)N[C@H](Cc1ccccc1)C(=O)N[C@@H](CCCNC(=N)N)C(=O)N[C@@H](CCCNC(=N)N)C(N)=O [Peptide 6, H-Ile-Leu-Pro-D-Phe-Lys-D-Phe-Pro-D-Phe-D-Phe-Pro-D-Phe-Arg-Arg-NH2] (H-ILP[dF]K[dF]P[dF][dF]P[dF]RR-NH2) | 1 to 5 µg/mL | 
